In the supplement of paper PMC5949888 one finds growth estimate data, which are given here for 78 substances.

Most values lie at the floor of the assay. Slopes are relative: functional sequences can read slightly below zero. Some results are limits rather than exact numbers.

The series has as its system Saccharomyces cerevisiae PS128 hsf1 delta, HSF1(1-493) fusion. Kind of series: growth estimate (transactivation domain function in HSF1 fusion, heat-shock survival) (a.u. (slope of normalised read count over time)); higher = stronger growth at 37°C, i.e. more transactivation activity. The conditions noted are these: library: random library.
As to GAVDWGTLTKNWLDGCHSG, the growth estimate is 0.0021.

For the substance CLHEDMPPR, the growth estimate was < -0.25.

Turning to MGSSLGSIFVNRRDPLLTRS, the growth estimate was < -0.25.

TEFAVSASPSDQIFGKVLLA: the growth estimate is < -0.25.

Take DRLMNDSVLRCGRTNSDIGS: the growth estimate is < -0.25.

Turning to PRGTFCYERLECSVSIDTSI, the growth estimate is < -0.25.

For GRVSAHRGRSGYVGPSEIID, the growth estimate is < -0.25.

Turning to SQVKFGITGGLVEHGSFRGE, the growth estimate was < -0.25.

For the substance RIDGMVRPKLRHMKGRLRAK, the growth estimate is < -0.25.

GHVAFSLRSSRESYYSLFTG: the growth estimate was < -0.25.

Consider QTTLQWSGLEGLTCLRHSAR, for which the growth estimate is < -0.25.

For GQNDVEVDEYPERAVISRYH, the growth estimate is < -0.25.

As for KSVGRPLGWTIVDGTENSPP, the growth estimate is < -0.25.

As for CSEYPMSTSLEAPVG, the growth estimate was < -0.25.

With GESRDTCQWCQIRFSYRVAA, the growth estimate was < -0.25.

As for SGAGRTPISTVG, the growth estimate was < -0.25.

As for CAGE, the growth estimate is < -0.25.

For KILVRSPRHCRYSGASGPSG, the growth estimate is < -0.25.

Consider SFPPVRGG, for which the growth estimate is < -0.25.

Take QTVTS: the growth estimate was < -0.25.

As for ILGKGSVWGHDAGTHGRSDS, the growth estimate was < -0.25.

As for DASPYK, the growth estimate was -0.233.

VSLCQGGNGLEEHLC: the growth estimate was < -0.25.

In the case of VDQREPGDQPCGSAVSYSPF, the growth estimate was -0.246.

With GSCPIRGLCHAYVSLMY, the growth estimate was < -0.25.

For VKWLRERGIDQSLNRRGFG, the growth estimate is < -0.25.

RIRSLVL: the growth estimate is < -0.25.

In the case of SRFSDPLVGLRQRGSTRLFR, the growth estimate is < -0.25.

Regarding ARSSRFGGQRVNF, the growth estimate was < -0.25.

As for GWSFPGAKRTLSGSVKA, the growth estimate is < -0.25.

Take ARSSNPRVACHLLY: the growth estimate is < -0.25.

For WSGAIEI, the growth estimate was < -0.25.

Turning to GTGERGRSLGKDGIDNSKAD, the growth estimate is < -0.25.

On to TWNSNHGLESLYTVQVVARP, for which the growth estimate is < -0.25.

Take PYPVASRPKRLSVTAAPGSA: the growth estimate was < -0.25.

As for RSTQAGSRHRWRCLVCQLKS, the growth estimate was < -0.25.

Consider SRVLSSHAPNMEPTELGPRM, for which the growth estimate was < -0.25.

With HPRSLDA, the growth estimate was < -0.25.

Regarding CQIKYNTLHAM, the growth estimate was < -0.25.

As for YTPRGNRRSV, the growth estimate is < -0.25.

Regarding GENR, the growth estimate was < -0.25.

On to SQTAAK, for which the growth estimate is < -0.25.

Regarding SNLRADLLARMSPRLGARGI, the growth estimate was < -0.25.

In the case of YSAYNTPSVDGVVDPTSIAV, the growth estimate is < -0.25.

For YEALNLPSLTAGHLV, the growth estimate was < -0.25.

For TCFGFRDAPVSSDDGSVDIN, the growth estimate is -0.216.

As to FYRGHFKGFCGSPMPGRMRV, the growth estimate was < -0.25.

As to SLYAGL, the growth estimate was < -0.25.

As for SILVAIC, the growth estimate is < -0.25.

Regarding TISASDARRAIE, the growth estimate was < -0.25.

As for VVRTPCLTWRWGRAHDTPDA, the growth estimate was < -0.25.

Turning to VYAELDRNFPTVYPI, the growth estimate was < -0.25.

As to LAPVIMTKWGSSIRTLIQAV, the growth estimate is < -0.25.

In the case of RAWWSLNHVGRVKRPFGQIL, the growth estimate is < -0.25.

Take RPPIWNPRNVL: the growth estimate was < -0.25.

With VPLFASE, the growth estimate was < -0.25.

In the case of FWTRRKLPV, the growth estimate is < -0.25.

With LEVTGVAQPRLHCGWATVSP, the growth estimate was < -0.25.

As to RDIEGPFRQEVEAGGCA, the growth estimate was < -0.25.

PCDYRISHEVMG: the growth estimate is < -0.25.

Turning to KRHLSDVSSFAS, the growth estimate was < -0.25.

With PGHWSHSLIRTRP, the growth estimate is < -0.25.

LLSYRG: the growth estimate was < -0.25.

Turning to KRQSSNFGAESIQRHDAARP, the growth estimate was < -0.25.

Turning to DVGPAA, the growth estimate is < -0.25.

Turning to GESLGR, the growth estimate is -0.172.

For the substance RWVFTQLL, the growth estimate was -0.245.

For the substance IGYGGTR, the growth estimate was < -0.25.

Turning to ANLEVAPPLEAHGISANSYS, the growth estimate is < -0.25.

Consider IRLTRV, for which the growth estimate is < -0.25.

As to ADGDQRCVVGHPPWSYETSF, the growth estimate was < -0.25.

Turning to EPMPVL, the growth estimate is < -0.25.

FTN: the growth estimate is < -0.25.

Consider IATQMTNIGELRMPRDTVL, for which the growth estimate is < -0.25.

In the case of LSISESRVCRGHSVSTTPSL, the growth estimate is < -0.25.

Turning to RGFPRVHESGPVFTSARRSW, the growth estimate was < -0.25.

With GESGPADYCEVTVRWCVRIA, the growth estimate is < -0.25.

As to RKSHYLAGSACQRSRLWRWG, the growth estimate is < -0.25.
